For 25 targets, log2 fold change results are on record in the supplement of paper PMC10849652.

The chains behind the UniProt entries cited, without tags or fusion partners. Where a name states a change or a piece, a line headed by the entry shows the natural chain unless it says otherwise.
UniProt P0C7P0: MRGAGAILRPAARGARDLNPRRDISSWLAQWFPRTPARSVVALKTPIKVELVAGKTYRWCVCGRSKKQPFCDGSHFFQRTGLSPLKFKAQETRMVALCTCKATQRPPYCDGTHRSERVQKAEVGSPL
UniProt P51788: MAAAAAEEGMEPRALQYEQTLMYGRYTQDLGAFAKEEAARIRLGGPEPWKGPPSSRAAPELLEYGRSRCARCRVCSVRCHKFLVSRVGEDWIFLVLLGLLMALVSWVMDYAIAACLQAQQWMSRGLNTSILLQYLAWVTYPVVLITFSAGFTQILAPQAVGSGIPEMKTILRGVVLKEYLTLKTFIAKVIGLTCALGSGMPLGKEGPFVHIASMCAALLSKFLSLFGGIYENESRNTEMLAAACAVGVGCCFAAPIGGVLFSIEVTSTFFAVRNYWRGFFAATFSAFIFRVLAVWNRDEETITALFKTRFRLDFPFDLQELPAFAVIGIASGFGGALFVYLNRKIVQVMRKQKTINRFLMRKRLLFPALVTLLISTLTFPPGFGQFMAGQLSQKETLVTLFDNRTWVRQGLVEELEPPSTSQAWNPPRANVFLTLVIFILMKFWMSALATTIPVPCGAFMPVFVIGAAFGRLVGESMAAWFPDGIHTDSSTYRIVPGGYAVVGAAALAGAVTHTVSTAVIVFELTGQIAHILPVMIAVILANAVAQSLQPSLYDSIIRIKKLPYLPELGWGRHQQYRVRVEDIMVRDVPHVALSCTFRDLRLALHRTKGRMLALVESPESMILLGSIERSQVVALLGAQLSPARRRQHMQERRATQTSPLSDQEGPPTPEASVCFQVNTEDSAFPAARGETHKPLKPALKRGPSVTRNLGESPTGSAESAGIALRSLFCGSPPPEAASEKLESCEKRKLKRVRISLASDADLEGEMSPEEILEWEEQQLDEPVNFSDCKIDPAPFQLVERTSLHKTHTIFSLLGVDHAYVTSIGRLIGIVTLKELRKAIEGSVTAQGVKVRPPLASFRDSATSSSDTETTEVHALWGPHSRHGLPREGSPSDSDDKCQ
UniProt Q8IYA6: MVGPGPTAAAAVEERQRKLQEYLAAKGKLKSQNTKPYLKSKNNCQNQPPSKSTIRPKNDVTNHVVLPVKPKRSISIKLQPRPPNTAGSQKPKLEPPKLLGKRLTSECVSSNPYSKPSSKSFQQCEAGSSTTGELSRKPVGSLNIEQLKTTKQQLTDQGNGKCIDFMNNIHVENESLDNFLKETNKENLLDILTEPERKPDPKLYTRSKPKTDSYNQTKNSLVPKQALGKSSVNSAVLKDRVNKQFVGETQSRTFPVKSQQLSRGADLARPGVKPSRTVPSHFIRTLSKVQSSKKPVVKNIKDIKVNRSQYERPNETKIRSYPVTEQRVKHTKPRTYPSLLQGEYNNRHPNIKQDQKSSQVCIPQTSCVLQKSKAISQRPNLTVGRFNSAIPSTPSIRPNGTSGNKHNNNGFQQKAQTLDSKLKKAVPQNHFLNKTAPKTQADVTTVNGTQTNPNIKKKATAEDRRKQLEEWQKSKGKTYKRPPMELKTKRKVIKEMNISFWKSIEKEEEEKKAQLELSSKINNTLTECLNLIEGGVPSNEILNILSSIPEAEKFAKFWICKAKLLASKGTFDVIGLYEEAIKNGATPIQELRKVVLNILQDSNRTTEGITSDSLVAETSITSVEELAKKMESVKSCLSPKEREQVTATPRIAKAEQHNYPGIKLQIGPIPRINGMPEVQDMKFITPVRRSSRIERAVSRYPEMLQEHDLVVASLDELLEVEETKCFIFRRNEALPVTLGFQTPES
UniProt P30622: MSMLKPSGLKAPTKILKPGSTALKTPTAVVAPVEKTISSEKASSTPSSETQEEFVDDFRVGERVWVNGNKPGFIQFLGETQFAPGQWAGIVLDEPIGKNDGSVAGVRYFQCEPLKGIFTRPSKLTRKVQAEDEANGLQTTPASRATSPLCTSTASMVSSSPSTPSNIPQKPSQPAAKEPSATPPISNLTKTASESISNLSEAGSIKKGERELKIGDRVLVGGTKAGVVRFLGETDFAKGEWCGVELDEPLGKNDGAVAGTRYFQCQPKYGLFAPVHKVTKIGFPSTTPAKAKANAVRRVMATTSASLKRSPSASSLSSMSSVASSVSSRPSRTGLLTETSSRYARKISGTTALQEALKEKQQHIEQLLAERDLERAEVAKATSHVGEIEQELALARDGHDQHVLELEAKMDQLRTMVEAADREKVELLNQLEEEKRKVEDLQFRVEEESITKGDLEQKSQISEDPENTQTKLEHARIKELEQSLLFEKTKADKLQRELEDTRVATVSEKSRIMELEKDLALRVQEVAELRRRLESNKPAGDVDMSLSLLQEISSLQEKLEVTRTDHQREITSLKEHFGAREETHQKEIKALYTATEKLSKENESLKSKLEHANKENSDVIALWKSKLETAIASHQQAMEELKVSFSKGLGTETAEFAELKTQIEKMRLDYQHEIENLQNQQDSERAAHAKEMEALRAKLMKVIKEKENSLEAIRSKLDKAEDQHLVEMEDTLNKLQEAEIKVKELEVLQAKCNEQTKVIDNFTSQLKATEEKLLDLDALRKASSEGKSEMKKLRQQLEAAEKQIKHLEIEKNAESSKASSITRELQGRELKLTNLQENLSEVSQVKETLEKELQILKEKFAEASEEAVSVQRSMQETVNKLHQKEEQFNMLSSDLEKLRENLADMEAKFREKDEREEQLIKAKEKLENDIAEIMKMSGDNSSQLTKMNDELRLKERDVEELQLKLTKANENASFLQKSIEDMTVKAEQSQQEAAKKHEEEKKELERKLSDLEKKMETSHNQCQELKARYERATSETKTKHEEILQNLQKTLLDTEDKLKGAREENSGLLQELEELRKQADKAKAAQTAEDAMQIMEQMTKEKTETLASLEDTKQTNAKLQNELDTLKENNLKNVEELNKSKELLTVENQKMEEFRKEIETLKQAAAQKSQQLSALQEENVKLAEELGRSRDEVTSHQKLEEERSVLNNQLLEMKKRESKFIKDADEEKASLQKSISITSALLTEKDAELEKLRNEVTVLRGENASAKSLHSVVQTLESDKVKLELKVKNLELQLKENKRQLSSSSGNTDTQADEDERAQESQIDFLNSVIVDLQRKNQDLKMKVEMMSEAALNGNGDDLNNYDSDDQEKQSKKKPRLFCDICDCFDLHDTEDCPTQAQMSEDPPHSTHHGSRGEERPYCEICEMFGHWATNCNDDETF
UniProt Q9NWW5: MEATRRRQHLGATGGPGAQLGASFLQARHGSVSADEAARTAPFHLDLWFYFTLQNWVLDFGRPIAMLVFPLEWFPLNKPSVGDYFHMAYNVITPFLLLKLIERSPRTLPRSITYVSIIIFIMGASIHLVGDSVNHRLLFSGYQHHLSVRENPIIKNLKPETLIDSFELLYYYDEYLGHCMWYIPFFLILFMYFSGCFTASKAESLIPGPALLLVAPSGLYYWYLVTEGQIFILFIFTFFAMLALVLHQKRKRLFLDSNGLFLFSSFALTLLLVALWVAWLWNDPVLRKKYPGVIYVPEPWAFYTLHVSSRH
UniProt Q9UDT6: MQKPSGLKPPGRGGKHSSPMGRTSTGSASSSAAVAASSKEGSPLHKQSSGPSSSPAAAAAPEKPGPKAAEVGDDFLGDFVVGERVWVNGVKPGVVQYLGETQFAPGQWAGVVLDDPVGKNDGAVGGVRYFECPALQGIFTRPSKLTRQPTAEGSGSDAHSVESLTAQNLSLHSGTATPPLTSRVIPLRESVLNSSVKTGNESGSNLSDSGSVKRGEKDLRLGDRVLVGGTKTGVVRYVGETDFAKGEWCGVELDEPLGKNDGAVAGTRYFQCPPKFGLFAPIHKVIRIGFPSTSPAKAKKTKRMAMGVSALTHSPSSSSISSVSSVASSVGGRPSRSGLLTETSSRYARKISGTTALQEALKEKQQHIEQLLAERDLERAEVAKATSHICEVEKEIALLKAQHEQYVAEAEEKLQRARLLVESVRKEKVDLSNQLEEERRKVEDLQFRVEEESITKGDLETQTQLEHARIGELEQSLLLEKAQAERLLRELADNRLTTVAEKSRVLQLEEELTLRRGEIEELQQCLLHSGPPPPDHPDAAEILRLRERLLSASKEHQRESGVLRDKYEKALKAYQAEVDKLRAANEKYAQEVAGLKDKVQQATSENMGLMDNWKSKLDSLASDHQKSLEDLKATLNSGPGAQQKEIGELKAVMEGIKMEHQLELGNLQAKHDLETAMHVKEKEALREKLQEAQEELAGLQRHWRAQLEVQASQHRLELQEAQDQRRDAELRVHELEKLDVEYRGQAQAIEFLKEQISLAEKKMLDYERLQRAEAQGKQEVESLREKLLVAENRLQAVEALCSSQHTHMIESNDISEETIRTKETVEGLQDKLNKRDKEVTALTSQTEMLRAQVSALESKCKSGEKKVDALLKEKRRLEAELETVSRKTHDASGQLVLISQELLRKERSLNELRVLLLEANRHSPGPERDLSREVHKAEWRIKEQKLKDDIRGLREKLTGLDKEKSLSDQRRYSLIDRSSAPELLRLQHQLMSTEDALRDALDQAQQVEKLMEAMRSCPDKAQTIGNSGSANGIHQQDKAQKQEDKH
UniProt P51797: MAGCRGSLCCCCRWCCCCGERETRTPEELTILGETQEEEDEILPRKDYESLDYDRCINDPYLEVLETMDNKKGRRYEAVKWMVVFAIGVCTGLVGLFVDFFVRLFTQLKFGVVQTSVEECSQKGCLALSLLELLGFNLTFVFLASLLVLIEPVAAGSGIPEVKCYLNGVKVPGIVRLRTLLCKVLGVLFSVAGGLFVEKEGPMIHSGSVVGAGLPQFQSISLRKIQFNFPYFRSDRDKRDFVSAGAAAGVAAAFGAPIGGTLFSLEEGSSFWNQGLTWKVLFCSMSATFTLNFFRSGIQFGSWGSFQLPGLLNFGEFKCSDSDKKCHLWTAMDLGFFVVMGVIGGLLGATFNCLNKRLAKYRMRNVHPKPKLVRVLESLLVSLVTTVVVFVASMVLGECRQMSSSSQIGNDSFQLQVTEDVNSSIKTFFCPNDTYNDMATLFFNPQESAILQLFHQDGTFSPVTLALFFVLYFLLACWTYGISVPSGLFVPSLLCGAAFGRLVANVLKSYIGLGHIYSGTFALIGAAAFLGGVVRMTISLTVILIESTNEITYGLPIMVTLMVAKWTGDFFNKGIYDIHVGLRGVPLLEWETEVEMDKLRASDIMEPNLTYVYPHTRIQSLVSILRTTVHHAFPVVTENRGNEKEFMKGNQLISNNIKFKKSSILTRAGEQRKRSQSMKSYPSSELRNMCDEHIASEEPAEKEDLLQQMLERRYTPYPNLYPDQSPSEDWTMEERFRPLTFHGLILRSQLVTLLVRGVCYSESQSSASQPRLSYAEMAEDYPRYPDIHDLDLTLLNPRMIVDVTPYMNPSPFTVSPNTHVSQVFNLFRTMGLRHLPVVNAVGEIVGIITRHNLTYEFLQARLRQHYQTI
UniProt Q9NX76: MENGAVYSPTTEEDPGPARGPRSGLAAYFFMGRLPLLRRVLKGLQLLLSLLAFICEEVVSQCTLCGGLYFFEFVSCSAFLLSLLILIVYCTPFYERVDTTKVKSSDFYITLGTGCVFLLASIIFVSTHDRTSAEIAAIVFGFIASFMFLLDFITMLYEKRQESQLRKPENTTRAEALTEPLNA
UniProt O96017, whole entry, looked up: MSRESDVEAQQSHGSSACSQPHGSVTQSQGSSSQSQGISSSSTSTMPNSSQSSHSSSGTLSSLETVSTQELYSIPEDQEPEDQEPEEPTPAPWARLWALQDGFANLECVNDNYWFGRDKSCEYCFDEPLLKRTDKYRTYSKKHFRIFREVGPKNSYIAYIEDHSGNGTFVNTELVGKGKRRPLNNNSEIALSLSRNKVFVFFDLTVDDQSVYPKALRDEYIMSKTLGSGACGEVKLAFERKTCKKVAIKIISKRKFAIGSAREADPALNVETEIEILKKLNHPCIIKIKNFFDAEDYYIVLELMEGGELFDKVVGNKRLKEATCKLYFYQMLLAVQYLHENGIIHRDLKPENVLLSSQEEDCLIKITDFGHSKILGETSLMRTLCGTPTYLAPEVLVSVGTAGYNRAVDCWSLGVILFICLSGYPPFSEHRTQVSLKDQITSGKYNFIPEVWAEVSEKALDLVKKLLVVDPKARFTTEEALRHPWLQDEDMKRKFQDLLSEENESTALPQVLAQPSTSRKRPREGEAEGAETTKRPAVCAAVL
UniProt P0CG13, whole entry, looked up: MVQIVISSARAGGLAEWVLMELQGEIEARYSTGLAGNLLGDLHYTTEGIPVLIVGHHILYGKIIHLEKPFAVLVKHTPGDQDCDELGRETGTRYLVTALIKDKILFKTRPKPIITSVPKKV
UniProt P56749: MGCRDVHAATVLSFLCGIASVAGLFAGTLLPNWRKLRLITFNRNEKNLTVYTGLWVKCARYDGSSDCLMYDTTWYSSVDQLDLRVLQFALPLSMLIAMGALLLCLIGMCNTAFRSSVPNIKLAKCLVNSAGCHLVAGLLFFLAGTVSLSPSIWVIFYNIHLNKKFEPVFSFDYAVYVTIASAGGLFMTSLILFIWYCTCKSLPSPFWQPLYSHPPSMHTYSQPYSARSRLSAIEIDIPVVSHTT

The other results are listed elsewhere or left out.

Compound in the first assay: C1CCN(C1)C(=O)NC2=CC=CC(=C2)NC3=NC=C(C(=N3)NCCC4=CN=CN4)Br
The experiment in a line: log2 fold change, soluble protein after heating vs DMSO (PISA); higher = thermal stabilisation; K562 lysate, 10 uM; active = over 0.2 and 3.5 SD of the protein, either way, in both replicates (recomputed). In short, it runs like this:
(§1)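 To prepare the extract, K562 pellets were dounce-homogenised in PBS pH 7.4 with 1 mM MgCl2, giving crude material at 1 mg/mL protein. This was treated with 10 μM compound for 30 min, then heated in aliquots for 3 min over 48°C-58°C before pooling and addition of NP-40 to 0.5% at 4°C. Centrifugation at 21,000xg for 90 min left soluble protein in the supernatant, which TMTpro 16plex LC-MS/MS quantified with equalised channel sums. Results are log-two fold changes in thermal stability compared with solvent controls, from duplicates.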
For CHPF2 (UniProt Q9P2E5), the log2 fold change is inactive: 0.02.

CLIP4 (UniProt Q8N3C7): the log2 fold change was inactive: -0.011.

As for CLN8 (UniProt Q9UBY8), the log2 fold change was inactive: -0.014.

With CLUAP1 (UniProt Q96AJ1), the log2 fold change was inactive: 0.139.

Turning to CISD3 (UniProt P0C7P0), the log2 fold change is inactive: -0.018.

As to CLCN2 (UniProt P51788), the log2 fold change is inactive: 0.027.

Turning to CLUAP1 (UniProt I3L2E1), the log2 fold change is inactive: -0.171.

With CLTA (UniProt P09496), the log2 fold change was inactive: 0.025.

As to CKAP2L (UniProt Q8IYA6), the log2 fold change was inactive: 0.401.

Regarding CLK3 (UniProt P49761), the log2 fold change is inactive: -0.059.

CLIP1 isoform 2 (UniProt P30622): the log2 fold change was inactive: 0.023.

As for CLTC (UniProt Q00610), the log2 fold change is inactive: -0.019.

For CLN6 (UniProt Q9NWW5), the log2 fold change is inactive: 0.081.

As to CLIP2 (UniProt Q9UDT6), the log2 fold change was inactive: 0.015.

On to CLIC6 (UniProt Q96NY7), for which the log2 fold change is inactive: -0.125.

For CLINT1 isoform 3 (UniProt Q14677), the log2 fold change was inactive: -0.101.

Turning to CLK1 isoform 3 (UniProt P49759), the log2 fold change was inactive: 0.

In the case of CHFR (UniProt Q96EP1), the log2 fold change was inactive: -0.023.

With CLN5 (UniProt O75503), the log2 fold change was inactive: 0.048.

Consider CLCN6 isoform 5 (UniProt P51797), for which the log2 fold change was inactive: 0.009.

On to CMTM6 (UniProt Q9NX76), for which the log2 fold change was inactive: -0.045.

CHPF (UniProt Q8IZ52): the log2 fold change was inactive: -0.018.

Take CHEK2 (UniProt O96017): the log2 fold change was inactive: 0.11.

CHTF8 (UniProt P0CG13): the log2 fold change is inactive: -0.044.

As to CLDN12 (UniProt P56749), the log2 fold change was inactive: 0.047.

Compound in another assay: C1CN(CCC1(CC2=CC=C(C=C2)Cl)N)C3=NC=NC4=C3C=CN4
The assay is described as above. Summed up: as §1
Turning to CHPF2 (UniProt Q9P2E5), the log2 fold change is inactive: -0.171.

On to CLIP4 (UniProt Q8N3C7), for which the log2 fold change is inactive: 0.052.

Turning to CLN8 (UniProt Q9UBY8), the log2 fold change is inactive: 0.126.

Turning to CLUAP1 (UniProt Q96AJ1), the log2 fold change was inactive: 0.119.

CISD3 (UniProt P0C7P0): the log2 fold change is inactive: 0.028.

As for CLCN2 (UniProt P51788), the log2 fold change was inactive: -0.048.

For CLUAP1 (UniProt I3L2E1), the log2 fold change was inactive: 0.081.

Regarding CLTA (UniProt P09496), the log2 fold change was inactive: -0.047.

With CKAP2L (UniProt Q8IYA6), the log2 fold change was inactive: -0.078.

Consider CLK3 (UniProt P49761), for which the log2 fold change was inactive: 0.088.

Take CLIP1 isoform 2 (UniProt P30622): the log2 fold change is inactive: 0.023.

Turning to CLTC (UniProt Q00610), the log2 fold change is inactive: 0.008.

For CLN6 (UniProt Q9NWW5), the log2 fold change was inactive: -0.019.

Consider CLIP2 (UniProt Q9UDT6), for which the log2 fold change is inactive: -0.153.

For the target CLIC6 (UniProt Q96NY7), the log2 fold change is inactive: -0.005.

Turning to CLINT1 isoform 3 (UniProt Q14677), the log2 fold change is inactive: -0.022.

On to CLK1 isoform 3 (UniProt P49759), for which the log2 fold change was inactive: 0.048.

CHFR (UniProt Q96EP1): the log2 fold change is inactive: -0.013.

For CLN5 (UniProt O75503), the log2 fold change was inactive: 0.042.

As for CLCN6 isoform 5 (UniProt P51797), the log2 fold change is inactive: 0.086.

On to CMTM6 (UniProt Q9NX76), for which the log2 fold change was inactive: -0.065.

On to CHPF (UniProt Q8IZ52), for which the log2 fold change is inactive: 0.104.

With CHEK2 (UniProt O96017), the log2 fold change was inactive: -0.035.

For the target CHTF8 (UniProt P0CG13), the log2 fold change was inactive: -0.022.

With CLDN12 (UniProt P56749), the log2 fold change was inactive: 0.025.
